Measurements as given in PubChem BioAssay AID1688 (National Center for Advancing Translational Sciences (NCATS), 2009).
The whole screen tested about 220,000 compounds, of which about 2,400 (1.1%) were called active. The shares of active, inactive and inconclusive entries below differ from those in the screen. The call rests on the fitted dose curve; in most records, active means well fitted inhibition curve with a large enough effect; inconclusive means small, poorly fitted or top-dose-only effect, or effect the other way; inactive means no such curve, though single readings can be large or run the other way. Where the call is inconclusive, the potency comes from a doubtful curve fit.

test: qHTS Multiplex Assay to Identify Dual Action Probes in a Cell Model of Huntington: Aggregate Formation (GFP); details: PC12 HttQ103-GFP aggregates, Acumen cytometry, 40 h; activity change, negative = inhibition: at 46.1 µM (top of the series) unless noted; further: nearly all actives have a fitted effect of over 60% in size
Summary of the method: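 PC12/HTTQ103-GFP, ecdysone-inducible; teb 100 nM; cpd qHTS titration; GFP aggregates read on laser cytometer, Ex 488/Em 500-530 nm.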
On the % scale 0 is the no-effect control and ±100 the full control effect; potency means the concentration at half of the fitted maximal effect.

Structure (SMILES)	Potency	activity change, negative = inhibition
CCN(CC)S(=O)(=O)c1ccc(N(C)Cc2cccc(OC)c2OC)nc1	inconclusive: 35.5 µM [inhibitor, single point]	
Cc1onc(-c2ccccc2Cl)c1C(=O)Nc1nnc(-c2ccc(Br)cc2)s1	inconclusive: 25.1 µM [inhibitor, single point]	
CC(=O)NC[C@@H]1CN(c2ccc(N3CCOCC3)c(F)c2)C(=O)O1	inactive	
CC(C)OP(=O)(c1ccc(N(C)C)cc1)C(O)c1cccnc1 (stereo not given)		inactive: 12.9% [at 9.22 µM]
COc1ccc2c(c1)C(SCC(=O)NCCc1ccccc1)CC(C)(C)O2 (stereo not given)	inconclusive: 35.5 µM [inhibitor, single point]	
COc1ccc(C2CC(c3ccc4ccccc4c3)=NN2C(=O)COC(=O)C2CCC(=O)N2)cc1 (stereo not given)	inconclusive: 35.5 µM [inhibitor, single point]	
Cc1nc(C)c(C(=O)C2=C(O)C(=O)N(CCCn3ccnc3)C2c2ccc(Cl)cc2)s1 (stereo not given)	inconclusive: 22.4 µM [inhibitor, single point]	
Clc1ccc(OCc2nc(-c3ccncc3)no2)c(Cl)c1	inactive	
Cc1ccc(OCC(=O)NNC(=O)CCC(=O)NCc2ccccc2)cc1	inconclusive: 35.5 µM [inhibitor, single point]	
COc1ccccc1-c1nnc(SC2CCc3ccccc3NC2=O)s1 (stereo not given)	inconclusive: 35.5 µM [inhibitor, single point]	
Cc1ccc(OCC(=O)N2CCN(C(=O)c3ccncc3)CC2)cc1	active: 0.0282 µM	
CCC(=O)OCC(=O)Nc1ncc(C(F)(F)F)cc1Cl		inactive: -6.9% [at 9.22 µM]
S=C(c1ccc(-c2ccccc2Cl)o1)N1CCCCC1	inconclusive: 35.5 µM [inhibitor, single point]	
Cc1cc(Nc2ccccc2)n(-c2cccc(Cl)c2)n1	inconclusive: 11.2 µM [activator, partial curve]	
O=[N+]([O-])c1ncn(Cc2c(Cl)cccc2Cl)n1	inconclusive: 35.5 µM [inhibitor, single point]	
COc1ccccc1NC(=O)NCc1ccco1	inactive	
Cc1nn(Cc2cccc(C(=O)NC34CC5CC(CC(C5)C3)C4)c2)c(C)c1Br	active: 20 µM	
NC1=Nc2cccc3cccc1c23	inconclusive: 35.5 µM [inhibitor, single point]	
Cc1cnc(NC(=O)c2cncc(Br)c2)s1	inactive	
O=[N+]([O-])c1ccc(Nc2nc(NC3CCCCC3)nc(N3CCCC3)n2)cc1	inconclusive: 25.1 µM [inhibitor, single point]	
Cc1c(O)c(=O)ccn1Cc1ccccc1	inconclusive: 22.4 µM [inhibitor, single point]	
N#Cc1cccc(C#N)c1Oc1ccc(S(=O)(=O)Nc2ccccc2)cc1		inactive: -0.823% [at 9.22 µM]
c1ccc2c(c1)ccc1nnc(-c3ccc4c(c3)OCO4)n12	inconclusive: 7.94 µM [inhibitor, partial curve]	
CCNc1nc(=S)nc(NC(C)C)[nH]1	inconclusive: 10 µM [activator, partial curve]	

Already shown: five of the compounds above.
Structure (SMILES)	Potency	activity change, negative = inhibition
S=C(c1ccc(-c2ccccc2Cl)o1)N1CCCCC1	inconclusive: 35.5 µM [inhibitor, single point]	
Cc1cc(Nc2ccccc2)n(-c2cccc(Cl)c2)n1	inconclusive: 11.2 µM [activator, partial curve]	
O=[N+]([O-])c1ncn(Cc2c(Cl)cccc2Cl)n1	inconclusive: 35.5 µM [inhibitor, single point]	
COc1ccccc1NC(=O)NCc1ccco1	inactive	
Cc1nn(Cc2cccc(C(=O)NC34CC5CC(CC(C5)C3)C4)c2)c(C)c1Br	active: 20 µM	

Further entries

Structure (SMILES)	Potency	activity change, negative = inhibition
C=CCOc1ccc(/C(O)=C2\C(=O)C(=O)N(CCN(C)C)C2c2cccs2)cc1 (stereo not given)	inconclusive: 0.562 µM [activator, full curve, poor fit]	
NC(=O)C(c1ccc(Cl)cc1)c1ccc(Sc2ccc(Cl)cc2)nn1 (stereo not given)	inconclusive: 3.98 µM [inhibitor, partial curve]	
Fc1ccc(C(c2nnnn2CCc2ccccc2)N2CCCc3ccccc32)cc1 (stereo not given)	inconclusive: 11.2 µM [inhibitor, partial curve, poor fit]	
NC(=S)NNC(=O)Nc1cccc(Cl)c1	inactive	
Cc1nc(N)c(C#N)c(-c2ccccc2)c1C	inconclusive: 7.94 µM [inhibitor, partial curve]	
COC(=O)c1nc2n(n1)C(c1cccc(Cl)c1)C1=C(CCCC1=O)N2 (stereo not given)	inactive	
O=C(c1ccc(CN2CCc3ccccc3C2)cc1)N1CCN(c2ccccc2)CC1	inconclusive: 35.5 µM [inhibitor, single point]	
Cc1ccc(S(=O)(=O)n2nc(-c3ccco3)nc2SCc2ccccc2)cc1	inactive	
COc1cc([N+](=O)[O-])cc(/C=N/NC(=O)C(C)Nc2cccc(C)c2)c1O (stereo not given)	active: 10 µM	
Cc1cccc(N2CCN(C(=O)CC(NC(=O)c3ccccc3Cl)c3ccccc3)CC2)c1C (stereo not given)	inconclusive: 35.5 µM [inhibitor, single point]	
CCCCN(CC)C(=O)CN1C(=O)c2ccccc2C1=O	inactive	
COc1cccc(-c2nc(CS(=O)(=O)CC(=O)NCc3ccccc3OC)c(C)o2)c1	inactive	
CCOc1ccc(S(=O)(=O)N2CCN(C(=O)c3cccn3C)CC2)cc1	inactive	
CCN(CC)CCN1C(=O)C(=O)/C(=C(/O)c2c(C)[nH]c(C(=O)OC)c2C)C1c1ccccc1 (stereo not given)	inconclusive: 3.16 µM [inhibitor, partial curve]	
Cc1ccc(-c2csc(NC(=O)C3CCN(S(=O)(=O)c4cccs4)CC3)n2)cc1	inconclusive: 11.2 µM [inhibitor, partial curve]	
CC(c1ccon1)N(C)Cc1cn[nH]c1-c1ccc(F)cc1F (stereo not given)		inactive: -14.8% [at 9.22 µM]
Cc1ccc(S(=O)(=O)N(C)Cc2ccc(-c3nnc4n3CCC4)cc2)cc1	inactive	
Cc1cc(Cl)ccc1OCC(=O)NCCCCc1ccccc1	inconclusive: 5.62 µM [inhibitor, single point]	
CCCc1nc2sc3c(SCC(=O)NCc4ccco4)ncnc3c2c2c1CCC2	inconclusive: 22.4 µM [activator, single point]	
COc1ccccc1OCCNS(=O)(=O)c1ccc2oc3ccccc3c2c1	inconclusive: 35.5 µM [inhibitor, single point]	
O=C(Oc1c(CN2CCOCC2)cc(Cl)c2cccnc12)c1ccccc1	inconclusive: 11.2 µM [inhibitor, partial curve]	
Cc1cc(C)c2nc(N3CCC(C(=O)NCCCN4CC(C)CC(C)C4)CC3)sc2c1 (stereo not given)	inconclusive: 11.2 µM [inhibitor, partial curve]	
C#CCN[C@@H]1CCc2ccccc21	inactive	
Cc1ccc(S(=O)(=O)NCCCCCC(=O)N(C)C)cc1	inconclusive: 7.08 µM [activator, partial curve]	

Structure (SMILES)	Potency	activity change, negative = inhibition
Cc1ccc(-n2nnc3c(SCC(=O)NCc4ccco4)ncnc32)cc1	inconclusive: 10 µM [activator, partial curve]	
Cc1cc(Cl)ccc1OCCCC(=O)NC1CCN(C)CC1	inactive	
Nc1nonc1-c1nc2ccccc2n1Cc1ccc(F)cc1	inconclusive: 2.51 µM [activator, full curve]	
O=C(N/N=C(\Cc1ncc[nH]1)c1ccccc1)c1ccncc1	inconclusive: 7.08 µM [inhibitor, full curve]	
CC(C)(C)NC(=O)Cn1nnc(-c2cccs2)n1	inconclusive: 0.794 µM [activator, single point]	
COc1ccc(-c2csc(NC(=O)C3CCCO3)n2)cc1 (stereo not given)	inactive	
COc1cc(OC)c(OC)cc1NC(=O)CC1COc2ccccc2O1 (stereo not given)	inactive	
CCn1nc(C)c(/C=C2\CCCC3=C2OC(N)=C(C#N)C3c2c(C)nn(CC)c2C)c1C (stereo not given)	inconclusive: 35.5 µM [inhibitor, single point]	
O=C(Cc1cccc2ccccc12)N/N=C/c1ccc(OC(=O)/C=C/c2ccco2)cc1	inconclusive: 22.4 µM [inhibitor, single point]	
COc1ccc(CCn2c(N)c(C(=O)NCc3ccco3)c3nc4ccccc4nc32)cc1	inconclusive: 3.55 µM [activator, partial curve]	
Nc1cc(F)ccc1N1CCCCCC1	inconclusive: 11.2 µM [inhibitor, partial curve]	
CC(C)CNC(=O)NC(=O)COC(=O)c1cccc(NS(=O)(=O)c2ccc(F)c(F)c2)c1	inconclusive: 11.2 µM [activator, partial curve]	
Cc1c(C(=O)O)oc2c3c(ccc12)OCCO3	inconclusive: 35.5 µM [inhibitor, single point]	
CC(=O)c1ccc(N2CCC(c3cc(-c4ccc(Cl)cc4)n[nH]3)CC2)c([N+](=O)[O-])c1	inconclusive: 11.2 µM [inhibitor, single point]	
C=CCn1c(O)c(N=NC(=O)C(O)c2ccccc2)c2ccccc21 (stereo not given)		inactive: -15.6% [at 9.22 µM]
COC(=O)c1ccccc1NC(=O)CSc1nnc(-c2ccc(C)cc2)o1	inactive	
CC1=C(C(=O)Nc2ccc(C)cc2C)C(c2ccc(Cl)cc2)n2nc(C(=O)OC(C)C)nc2N1 (stereo not given)	inconclusive: 0.1 µM [inhibitor, partial curve, poor fit]	
CC12CC(c3ccccc3O1)N(C(=O)c1ccco1)C(=S)N2c1ccccc1 (stereo not given)	inconclusive: 35.5 µM [inhibitor, single point]	
OC[C@H]1O[C@@H](n2cnc3c(NC4CCCC4)ncnc32)[C@H](O)[C@@H]1O	inconclusive: 2.82 µM [activator, full curve, poor fit]	
Cc1ccccc1Nc1nc(Nc2ccccc2C)nc(SC2=NCCS2)n1	inconclusive: 20 µM [inhibitor, single point]	
Cc1cc(N2CCN(C(=O)c3ccco3)CC2)n2nc(-c3cccc(Cl)c3)cc2n1	inconclusive: 25.1 µM [inhibitor, single point]	
COc1ccc(C(=O)/C=C/C(=O)N(CC(=O)NC2CCCCC2)CC2CCCO2)c(O)c1 (stereo not given)		inactive: -8.06% [at 9.22 µM]

Full records, quoted from the list.
`Nc1cc(F)ccc1N1CCCCCC1` reads Potency: inconclusive: 11.2 µM [inhibitor, partial curve]
`CC12CC(c3ccccc3O1)N(C(=O)c1ccco1)C(=S)N2c1ccccc1` (stereo not given) reads Potency: inconclusive: 35.5 µM [inhibitor, single point]
